Source: publication PMC9152703
Results are given in words; binding and its absence hold for the method and conditions named. In cells and extracts the contact can be indirect. Values belong to the binder of their own block, whether it stands above or below them.

Protein sequences, listed by entry. Tags and fused reporters are not part of them. Lines headed by an entry give the natural chain unless they say otherwise; changes in a name come on top.
UniProt Q8TAB3: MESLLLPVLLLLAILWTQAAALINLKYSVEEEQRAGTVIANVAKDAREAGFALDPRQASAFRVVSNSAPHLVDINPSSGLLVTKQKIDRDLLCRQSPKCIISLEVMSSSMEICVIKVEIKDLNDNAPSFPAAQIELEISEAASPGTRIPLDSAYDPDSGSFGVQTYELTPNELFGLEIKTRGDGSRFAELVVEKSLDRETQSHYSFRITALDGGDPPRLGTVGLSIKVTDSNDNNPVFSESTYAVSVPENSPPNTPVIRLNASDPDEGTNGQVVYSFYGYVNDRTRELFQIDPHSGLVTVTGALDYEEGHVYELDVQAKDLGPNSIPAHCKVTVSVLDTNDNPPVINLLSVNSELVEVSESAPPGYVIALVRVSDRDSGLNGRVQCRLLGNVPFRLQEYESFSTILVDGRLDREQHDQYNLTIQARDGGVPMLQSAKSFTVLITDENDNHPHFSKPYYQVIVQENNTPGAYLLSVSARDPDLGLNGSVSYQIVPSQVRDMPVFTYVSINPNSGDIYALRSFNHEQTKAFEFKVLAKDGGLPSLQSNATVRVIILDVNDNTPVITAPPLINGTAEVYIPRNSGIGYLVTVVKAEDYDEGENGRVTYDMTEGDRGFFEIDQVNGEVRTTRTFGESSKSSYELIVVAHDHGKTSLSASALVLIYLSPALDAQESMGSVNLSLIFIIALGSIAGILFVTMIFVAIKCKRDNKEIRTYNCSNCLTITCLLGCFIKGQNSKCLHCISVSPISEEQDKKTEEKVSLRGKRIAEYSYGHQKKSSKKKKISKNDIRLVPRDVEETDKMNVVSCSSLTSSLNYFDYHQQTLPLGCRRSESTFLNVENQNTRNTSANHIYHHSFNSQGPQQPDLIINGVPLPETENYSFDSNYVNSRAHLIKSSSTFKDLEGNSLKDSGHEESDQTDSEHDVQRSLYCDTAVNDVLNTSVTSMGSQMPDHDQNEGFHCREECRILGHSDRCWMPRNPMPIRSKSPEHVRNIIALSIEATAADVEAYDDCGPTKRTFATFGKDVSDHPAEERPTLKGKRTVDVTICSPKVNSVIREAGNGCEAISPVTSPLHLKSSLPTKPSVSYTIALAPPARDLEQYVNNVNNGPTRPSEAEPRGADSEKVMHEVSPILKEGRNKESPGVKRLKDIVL

Assays:
[1] = biological target: HA-nLSD1 (neuronal-specific isoform neuroLSD1); assay: co-IP; HEK cells, PCDH19-879Δ or PCDH9 with HA-LSD1 or HA-nLSD1, modified RIPA buffer (Figure S4E); which partner was precipitated is not given
[2] = biological target: GST-CTF (GST-tagged PCDH19 C-terminal fragment) (UniProt Q8TAB3); assay: pull-down; GST-CTF or GST immobilized on beads, incubated overnight at 4°C with adult rat cortex and hippocampus homogenates in modified RIPA buffer; 5 washes; immunoblotting; only the target purified

- binding [1]: no binding
B1: PCDH9 (protocadherin-9) (protein, UniProt Q9HC56 24-1237)
chain: QELIYTIREELPENVPIGNIPKDLNISHINAATGTSASLVYRLVSKAGDAPLVKVSSSTGEIFTTSNRIDREKLCAGASYAEENECFFELEVVILPNDFFRLIKIKIIVKDTNDNAPMFPSPVINISIPENTLINSRFPIPSATDPDTGFNGVQHYELLNGQSVFGLDIVETPEGEKWPQLIVQQNLDREQKDTYVMKIKVEDGGTPQKSSTAILQVTVSDVNDNRPVFKEGQVEVHIPENAPVGTSVIQLHATDADIGSNAEIRYIFGAQVAPATKRLFALNNTTGLITVQRSLDREETAIHKVTVLASDGSSTPARATVTINVTDVNDNPPNIDLRYIISPINGTVYLSEKDPVNTKIALITVSDKDTDVNGKVICFIEREVPFHLKAVYDNQYLLETSSLLDYEGTKEFSFKIVASDSGKPSLNQTALVRVKLEDENDNPPIFNQPVIELSVSENNRRGLYLTTISATDEDSGKNADIVYQLGPNASFFDLDRKTGVLTASRVFDREEQERFIFTVTARDNGTPPLQSQAAVIVTVLDENDNSPKFTHNHFQFFVSENLPKYSTVGVITVTDADAGENKAVTLSILNDNDNFVLDPYSGVIKSNVSFDREQQSSYTFDVKATDGGQPPRSSTAKVTINVMDVNDNSPVVISPPSNTSFKLVPLSAIPGSVVAEVFAVDVDTGMNAELKYTIVSGNNKGLFRIDPVTGNITLEEKPAPTDVGLHRLVVNISDLGYPKSLHTLVLVFLYVNDTAGNASYIYDLIRRTMETPLDRNIGDSSQPYQNEDYLTIMIAIIAGAMVVIVVIFVTVLVRCRHASRFKAAQRSKQGAEWMSPNQENKQNKKKKRKKRKSPKSSLLNFVTIEESKPDDAVHEPINGTISLPAELEEQSIGRFDWGPAPPTTFKPNSPDLAKHYKSASPQPAFHLKPDTPVSVKKHHVIQELPLDNTFVGGCDTLSKRSSTSSDHFSASECSSQGGFKTKGPLHTRQCNSHSKSDNIPVTPQKCPSSTGFHIQENEESHYESQRRVTFHLPDGSQESCSDSGLGDHEPVGSGTLISHPLPLVQPQDEFYDQASPDKRTEADGNSDPNSDGPLGPRGLAEATEMCTQECLVLGHSDNCWMPPGLGPYQHPKSPLSTFAPQKEWVKKDKLVNGHTLTRAWKEDSNRNQFNDRKQYGSNEGHFNNGSHMTDIPLANLKSYKQAGGATESPKEHQL

- binding [2]: no binding
B2: NOVA1, endogenous in rat brain (protein, UniProt Q80WA4 1-474)
chain: MAAAPIQQNGTHTGVPIDLDPPDSRKRPLEAPPEAGSTKRTNTGEDGQYFLKVLIPSYAAGSIIGKGGQTIVQLQKETGATIKLSKSKDFYPGTTERVCLIQGTIEALNAVHGFIAEKIREMPQNVAKTEPVSILQPQTTVNPDRIKQVKIIVPNSTAGLIIGKGGATVKAIMEQSGAWVQLSQKPDGINLQERVVTVSGEPEQNRKAVELIIQKIQEDPQSGSCLNISYANVTGPVANSNPTGFPYANTAEVLPTAAAAAGLLGHANLAGVAAFPAVLSGFTGNDLVAITSALNTLASYGYNLNTLGLGLSQAAATGALAAAAASANPAAAAANLLATYASEASASGSTAGGTAGTFALGSLAAATAATNGYFGAASPLAASAILGTEKSTDGSKDVVEIAVPENLVGAILGKGGKTLVEYQELTGARIQISKKGEFVPGTRNRKVTITGTPAATQAAQYLITQRITYEQGVR
